Measurements: publication PMC5837968
These are yes or no findings as the source states them, for the method shown. Binding seen in cells or lysates may run through a third protein. Some binding calls cover weakened binding; strength is not graded here.

The chains behind the UniProt entries cited, without tags or fusion partners.
UniProt Q13489: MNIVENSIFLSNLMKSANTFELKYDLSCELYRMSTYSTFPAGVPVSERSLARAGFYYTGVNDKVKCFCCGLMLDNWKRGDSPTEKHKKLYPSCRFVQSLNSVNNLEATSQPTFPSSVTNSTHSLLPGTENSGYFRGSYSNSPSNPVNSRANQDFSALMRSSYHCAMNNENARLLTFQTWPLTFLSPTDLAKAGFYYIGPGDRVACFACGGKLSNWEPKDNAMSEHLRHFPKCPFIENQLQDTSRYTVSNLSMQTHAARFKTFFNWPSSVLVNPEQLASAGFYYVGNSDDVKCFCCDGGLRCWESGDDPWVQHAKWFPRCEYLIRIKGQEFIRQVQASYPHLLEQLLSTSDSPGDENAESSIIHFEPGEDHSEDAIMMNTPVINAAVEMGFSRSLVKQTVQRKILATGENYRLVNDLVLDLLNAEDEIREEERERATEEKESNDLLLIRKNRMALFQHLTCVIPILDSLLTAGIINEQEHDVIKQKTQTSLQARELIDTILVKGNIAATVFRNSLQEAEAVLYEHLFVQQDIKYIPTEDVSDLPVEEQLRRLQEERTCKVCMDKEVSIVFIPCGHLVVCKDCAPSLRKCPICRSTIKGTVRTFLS

Target: T1, Interferon regulatory factor 1 (IRF-1) (human (endogenous in hTLR7-HEK293)) (UniProt P10914)
T1 sequence: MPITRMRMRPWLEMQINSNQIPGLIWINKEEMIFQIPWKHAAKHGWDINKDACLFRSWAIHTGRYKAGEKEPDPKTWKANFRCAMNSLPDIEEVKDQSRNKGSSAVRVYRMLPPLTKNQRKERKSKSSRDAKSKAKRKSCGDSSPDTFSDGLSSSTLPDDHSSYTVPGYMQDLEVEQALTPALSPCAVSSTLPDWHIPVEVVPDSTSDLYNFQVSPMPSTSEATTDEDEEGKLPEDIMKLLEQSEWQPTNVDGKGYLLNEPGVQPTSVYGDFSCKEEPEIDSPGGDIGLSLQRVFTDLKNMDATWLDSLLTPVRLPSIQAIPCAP
Test: co-IP; lysates of hTLR7-HEK293 cells, untreated or stimulated with R848 (10 µM, 2 h), with or without PP2 (20 µM, 30 min) pretreatment; precipitated overnight at 4°C with anti-IRF-1 crosslinked to Protein G Dynabeads; immunoblot

cIAP2 (from UniProt Q13489 1-604) (enzyme)
binding: binds
